Publication PMC5562708
No constants are given. Whether binding was seen depends on the method and setting. Binding seen in cells or lysates may run through a third protein. Some entries that bind do so weakly or less than the wild type. Tags and fused reporters may be left off the sequences shown.

By UniProt entry, the sequences of proteins in these tests, tags left out. Residues count along the entry.
UniProt Q13873, residues 27-1038: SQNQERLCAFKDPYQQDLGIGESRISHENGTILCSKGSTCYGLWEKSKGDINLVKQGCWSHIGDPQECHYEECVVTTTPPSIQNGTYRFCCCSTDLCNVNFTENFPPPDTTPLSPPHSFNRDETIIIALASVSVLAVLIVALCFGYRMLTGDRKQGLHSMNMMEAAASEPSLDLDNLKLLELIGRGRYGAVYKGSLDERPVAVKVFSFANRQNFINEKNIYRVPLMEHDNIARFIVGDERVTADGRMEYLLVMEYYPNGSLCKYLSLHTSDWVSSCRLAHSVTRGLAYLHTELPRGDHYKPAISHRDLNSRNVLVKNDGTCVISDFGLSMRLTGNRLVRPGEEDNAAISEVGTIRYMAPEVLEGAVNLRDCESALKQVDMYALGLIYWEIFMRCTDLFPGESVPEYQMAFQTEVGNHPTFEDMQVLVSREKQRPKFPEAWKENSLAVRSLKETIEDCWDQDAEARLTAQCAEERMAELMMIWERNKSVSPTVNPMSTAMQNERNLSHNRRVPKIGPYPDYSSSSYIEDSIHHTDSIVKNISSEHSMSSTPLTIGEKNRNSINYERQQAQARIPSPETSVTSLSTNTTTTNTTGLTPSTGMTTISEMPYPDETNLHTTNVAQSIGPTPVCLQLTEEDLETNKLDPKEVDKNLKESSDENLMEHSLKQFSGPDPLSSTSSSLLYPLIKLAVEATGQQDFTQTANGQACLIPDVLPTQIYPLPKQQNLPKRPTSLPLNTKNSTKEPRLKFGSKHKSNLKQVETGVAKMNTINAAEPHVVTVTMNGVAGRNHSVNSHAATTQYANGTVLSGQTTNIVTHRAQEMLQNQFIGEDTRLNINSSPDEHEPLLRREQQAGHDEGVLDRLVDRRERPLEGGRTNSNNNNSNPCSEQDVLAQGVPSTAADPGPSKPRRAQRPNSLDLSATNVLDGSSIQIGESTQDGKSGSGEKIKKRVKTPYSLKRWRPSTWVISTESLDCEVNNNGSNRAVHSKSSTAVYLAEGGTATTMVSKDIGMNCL

Experiments:
[1] = target: T1, IRS4 E1189 truncation (myc-tagged) (mouse) (UniProt Q9Z0Y7); assay: co-IP; transfected HEK293T cells, lysed directly or starved 6 h and stimulated with 10 nM BMP2; RIPA or TNE buffer; IP with anti-myc (9E10) or anti-IRS4 antibody overnight, protein A sepharose; Western blot
T1 sequence: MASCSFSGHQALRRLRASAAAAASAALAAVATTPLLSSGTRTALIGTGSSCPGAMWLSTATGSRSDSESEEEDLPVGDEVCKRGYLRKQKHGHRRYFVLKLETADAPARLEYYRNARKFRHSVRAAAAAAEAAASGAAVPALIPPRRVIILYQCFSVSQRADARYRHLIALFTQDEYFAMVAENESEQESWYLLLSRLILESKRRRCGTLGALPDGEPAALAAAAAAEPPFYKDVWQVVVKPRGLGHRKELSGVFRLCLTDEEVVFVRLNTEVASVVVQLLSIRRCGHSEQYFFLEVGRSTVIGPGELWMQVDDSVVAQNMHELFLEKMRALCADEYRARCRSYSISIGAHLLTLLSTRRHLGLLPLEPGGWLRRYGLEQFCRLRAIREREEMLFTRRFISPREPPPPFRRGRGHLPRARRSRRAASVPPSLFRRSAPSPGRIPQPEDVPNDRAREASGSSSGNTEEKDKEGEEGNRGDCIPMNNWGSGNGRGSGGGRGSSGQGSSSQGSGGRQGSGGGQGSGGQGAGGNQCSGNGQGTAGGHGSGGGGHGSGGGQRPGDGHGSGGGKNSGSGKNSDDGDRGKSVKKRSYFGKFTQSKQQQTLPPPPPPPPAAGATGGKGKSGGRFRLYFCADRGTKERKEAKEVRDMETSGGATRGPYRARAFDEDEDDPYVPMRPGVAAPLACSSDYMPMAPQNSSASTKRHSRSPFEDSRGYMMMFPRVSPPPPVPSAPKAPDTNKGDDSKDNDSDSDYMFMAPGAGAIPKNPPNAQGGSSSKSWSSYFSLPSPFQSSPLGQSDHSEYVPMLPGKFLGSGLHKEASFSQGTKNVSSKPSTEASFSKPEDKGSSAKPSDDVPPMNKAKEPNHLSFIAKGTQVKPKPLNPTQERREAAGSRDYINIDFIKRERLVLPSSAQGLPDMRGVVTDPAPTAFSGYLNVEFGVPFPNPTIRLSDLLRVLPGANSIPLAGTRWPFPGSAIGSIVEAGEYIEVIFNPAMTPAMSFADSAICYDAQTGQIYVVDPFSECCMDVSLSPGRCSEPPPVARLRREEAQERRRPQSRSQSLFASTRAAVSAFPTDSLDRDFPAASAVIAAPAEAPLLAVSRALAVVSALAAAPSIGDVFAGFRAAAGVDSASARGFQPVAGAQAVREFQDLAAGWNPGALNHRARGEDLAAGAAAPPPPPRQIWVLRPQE

[2] = target: T2, myc-tagged IRS4 (IRS4-myc), wild type (mouse) (UniProt Q9Z0Y7); assay: as above
T2 sequence: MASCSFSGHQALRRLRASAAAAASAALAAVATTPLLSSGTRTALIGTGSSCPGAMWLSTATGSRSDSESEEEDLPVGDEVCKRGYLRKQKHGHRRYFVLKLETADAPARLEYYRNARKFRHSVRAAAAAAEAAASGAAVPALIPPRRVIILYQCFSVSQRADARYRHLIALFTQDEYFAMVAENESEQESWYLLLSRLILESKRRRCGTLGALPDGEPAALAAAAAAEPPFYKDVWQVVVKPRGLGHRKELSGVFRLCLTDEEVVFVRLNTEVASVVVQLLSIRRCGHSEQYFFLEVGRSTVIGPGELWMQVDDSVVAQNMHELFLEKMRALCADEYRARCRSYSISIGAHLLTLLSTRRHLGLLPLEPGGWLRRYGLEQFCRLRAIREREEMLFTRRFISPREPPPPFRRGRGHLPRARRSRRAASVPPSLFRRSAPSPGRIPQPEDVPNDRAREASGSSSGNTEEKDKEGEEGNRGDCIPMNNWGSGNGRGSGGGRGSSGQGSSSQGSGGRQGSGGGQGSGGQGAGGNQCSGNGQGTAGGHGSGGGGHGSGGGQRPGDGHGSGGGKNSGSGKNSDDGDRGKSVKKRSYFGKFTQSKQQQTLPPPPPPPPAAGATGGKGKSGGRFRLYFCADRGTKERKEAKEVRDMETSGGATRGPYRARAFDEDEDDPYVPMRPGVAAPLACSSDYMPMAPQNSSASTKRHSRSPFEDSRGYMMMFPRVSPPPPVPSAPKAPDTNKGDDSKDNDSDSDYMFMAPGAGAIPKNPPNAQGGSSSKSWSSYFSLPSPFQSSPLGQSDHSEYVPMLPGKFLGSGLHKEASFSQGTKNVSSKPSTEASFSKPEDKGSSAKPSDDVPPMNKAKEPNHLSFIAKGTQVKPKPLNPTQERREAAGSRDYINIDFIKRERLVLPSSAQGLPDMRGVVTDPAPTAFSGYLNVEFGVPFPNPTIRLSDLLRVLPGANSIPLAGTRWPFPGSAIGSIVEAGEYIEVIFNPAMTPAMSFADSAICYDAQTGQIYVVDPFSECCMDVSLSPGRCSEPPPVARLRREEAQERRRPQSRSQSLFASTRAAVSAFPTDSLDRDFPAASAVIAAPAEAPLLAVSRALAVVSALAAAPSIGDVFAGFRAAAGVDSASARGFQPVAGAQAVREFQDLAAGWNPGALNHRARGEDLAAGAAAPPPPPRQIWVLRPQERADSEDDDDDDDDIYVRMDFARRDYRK

- binding [1]: binds
- binding [2]: binds
Substance: HA-tagged BMPRII long form (HA-BMPRII-LF) (from UniProt Q13873 27-1038) (receptor)
